Percent effect of library compounds

Source: ChEMBL document CHEMBL3988442, “University of Dundee, Small-Polar-MMV Screening Library” (2021).

Results are given as percent effect.
The record does not define 0% and 100%; most values in the screen are far below 50% and negative numbers occur (in some assays of this library far below -100).
Compounds were drawn at random from those tested, without regard to their results.
Two or more numbers in one place are separate tests of the same structure; such repeats can differ widely.

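Phenotypic screen: M. tuberculosis growth, glucose 7H9 medium, 3 days; the read-out is not stated. Concentration: 50 µM. The record gives no direction; compounds that gave an IC50 in retests scored well above the rest, so higher reads as more growth inhibition. Size under these conditions: about 69,000 compounds, about 760 of them at 50% or above in at least one test.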

| SMILES | effect |
|---|---|
| `CCC[C@@H]1CN(Cc2ccc(N(C)C)nc2)C[C@H]1N(C)C` | -1.616 and -18.58 |
| `Cc1ccc(C(C)N(C)Cc2nc3c(cnn3C)c(=O)[nH]2)cc1` (stereo not shown) | 9.433 |
| `CO[C@@H]1CO[C@@]2(CCCN(C(=O)C3CC=CC3)C2)C1` | 11.08 |
| `CC(C)[C@H]1CN(Cc2ccccn2)C[C@@H]1NC(=O)CCS(C)(=O)=O` | -17.43 |
| `Cc1cc(N2CCN(C(=O)c3cc(Cl)c[nH]3)CC2)nc(C)n1` | 9.093 |
| `CC(C)Oc1ccc(CNC(=O)NCc2ccncc2)cc1F` | 13.33 |
| `Cc1nc(C2CCCN(C(=O)COCc3ccccc3Cl)C2)no1` (stereo not shown) | -8.341 |
| `COCCN(CC(C)C)c1cc(C)ncn1` | -2.504 and 22.28 |
| `Cc1cccc(OCCC(=O)N2CCCN(CC(N)=O)CC2)c1C` | 4.574 |
| `CCC(C)c1cc(C(=O)N(CC(=O)NC)c2cccc(F)c2)on1` (stereo not shown) | 3.168 and -47.43 |
| `Cl.c1nc(CCC2CCCN2)cc(N2CCCOCC2)n1` (stereo not shown) | -8.418 |
| `Cc1ccc(CN2CCCN(Cc3cscn3)CC2)cc1` | -2.624 |
| `COc1ccccc1CCNC(=O)C1CCC(Cn2cnnn2)CC1` (stereo not shown) | -7.619 |
| `CCN(CC)S(=O)(=O)N1CCCC(c2cccc(C(=O)O)c2)C1` (stereo not shown) | 20.13 |
| `CC(=O)NC(Cc1c[nH]c2cc(F)ccc12)C(=O)Nc1nonc1C` (stereo not shown) | -6.893 |
| `CC(C)(C)C(=O)NCCC1CN(Cc2ccccc2F)CCO1` (stereo not shown) | 4.176 and 5.477 |
| `CCNC(=O)NCc1ccc(-n2ccc(C(F)(F)F)n2)cc1` | 21.26 |
| `O=C(Nc1ccccc1)C1CCN(C(=O)COc2ccccc2F)CC1` | -7.325 |
| `CN(C)CCN1CC2(CCCN(c3ccc(Cl)cn3)C2)CCC1=O` (stereo not shown) | -14.59 |
| `CC(C)OCc1ncn2c1CN(Cc1cnn(C)c1)CCC2.O=C(O)C(F)(F)F` | -1.498 and -1.387 |
| `COCC1CN(C(=O)Nc2cc(-n3cccc3)ccc2F)CCO1` (stereo not shown) | -6.17 |
| `CN(C(=O)C1CCOCC1)[C@@H]1CCC[C@@H](N2CCCC2)[C@@H]1O` | 6.693 |
| `[H][C@@]12OCCN(C(=O)c3ccncc3)[C@@]1([H])CC[C@H]2OCCN(C)C` | 17.15 |
| `Cc1ccc(C)c(OCCN(C)C(=O)C2CCCN2C(N)=O)c1C` (stereo not shown) | 6.921 |
| `CCN1CCN(C2CCN(Cc3c(C)noc3C)CC2)C1=O` | 10.33 |
| `Cc1cc2n(n1)CC(CNCc1ccc(N3CCOCC3)nc1)CN2` (stereo not shown) | 6.804 |
| `Cc1nnc(SCc2cc(=O)n3c4c(sc3n2)CCCC4)[nH]1` | 31.42 |
| `Cc1cc(C(=O)NC2(C#N)CCSCC2)n(C)n1` | 26.17 |
| `COC(=O)C(c1cc(F)ccc1F)N(C)C(=O)c1ccnc(C)n1` (stereo not shown) | 6.536 |
| `N#Cc1c(F)cccc1N1CCC(NS(=O)(=O)c2cccs2)CC1` | -24.74 and 4.454 |
| `CN1C(=O)C2(CC(=O)Nc3[nH]ncc32)c2ccc(F)cc21` (stereo not shown) | -5.14 |
| `Cc1ccccc1C1(C(=O)NCCN2CCC(C)CC2)CCOCC1` | 6.261 |
| `CC(C)CC(=O)NS(=O)(=O)c1ccc(C#N)cc1C(F)(F)F` | -21.46 and -9.674 |
| `Cc1cn(CC(=O)Nc2cc(C(C)C)nn2C)cn1` | 7.321 |
| `Fc1cnccc1CN1CCC2(CCN2c2ncccn2)C1.O=C(O)C(F)(F)F` (stereo not shown) | -5.05 and 4.579 |
| `CN(C)Cc1ccnc(C2CN(CCCc3ccccc3)CCO2)n1` (stereo not shown) | 11.28 |
| `Cc1cccc(NC(=O)N(CCC(F)(F)F)C[C@H](O)CO)c1` | -1.869 |
| `Fc1cnc(N2CCC3(CC2)CN(Cc2ccccn2)CCO3)nc1.O=C(O)C(F)(F)F.O=C(O)C(F)(F)F` | 14.32 and -5.736 |
| `O=C(O)c1ccn(-c2ccccc2NS(=O)(=O)c2cccc(Cl)c2F)n1` | 1.7 |
| `CC(=O)N1CCC(n2ccc(-c3cnc(N4CCOCC4)nc3)n2)CC1` | 2.475 |
| `CCn1c(C)cc(C(=O)N2CCC(NC(=O)c3cc(C)no3)CC2)c1C` | 5.153 |
| `CCC(NC(=O)CCCNC(=O)OC)c1cc(F)ccc1F` (stereo not shown) | -14.89 |
| `CCN(CC)C(=O)N1CCN(C(=O)C2CCCc3[nH]ncc32)CC1` (stereo not shown) | 5.452 |
| `c1cc(-c2nnc3sc(CCN4CCCC4)nn23)ccn1` | 37.65 |
| `CC(C)N(CCNC(=O)c1[nH]nc2ccc(I)cc12)C(C)C` | 38.82 |
| `COc1ccc(Cl)cc1CS(=O)(=O)CC(=O)NC(C)CCC(C)C` (stereo not shown) | 7.851 and 17.49 |
| `Cc1ccc(C(=O)N2CCn3cc(CN(C)Cc4ccco4)nc3C2)o1.O=C(O)C(F)(F)F` | -6.549 |
| `COCCN1C(=O)CC[C@]12CC[C@@H](NCc1cccc(C)n1)CC2.O=C(O)C(F)(F)F` | -6.299 and -36.65 |
| `Cc1nccc(-c2cccc(NCC(=O)N3CCNC3=O)c2)n1` | -2.798 |
| `CC(=O)NCC1CCN(C(=O)c2csc(-c3ccc(C)cc3C)n2)CC1` | -2.285 |
| `O=C(NCc1nnc2n1CCC2)N1CCC2(CCCCC2)CC1` | -17.34 |
| `COc1ccc(C(=O)CCc2nc(C3CC3)no2)cc1` | 22.64 |
| `N[C@H]1CCCN(S(=O)(=O)c2ccc(C(=O)NCC(F)F)cc2)C1` | 10.9 |
| `CCc1nnc(CNC2CCN(c3ncnc4c(C)csc34)CC2)s1` | 9.249 |
| `COc1ccc(-c2cnc(CN3CCCC3Cn3cncn3)o2)cc1` (stereo not shown) | 32.95 and 10.05 |
| `COCCN1CCN(CC(O)c2ccc(OC(F)(F)F)cc2)CC1` (stereo not shown) | 11.52 |
| `Cc1nc(CN2CCN(C(=O)CCc3ccco3)CC2)cs1` | 9.443 |
| `CCOCCC(=O)NC1(c2cccc(Br)c2)CC1` | 5.259 and 0.9425 |
| `CN(Cc1cnn(C)c1)Cc1nc(Cc2cccc(Cl)c2)no1` | 13.46 and 27.27 |
| `CCCOCC1CCN(C(=O)Cn2cccc(OC)c2=O)C1` (stereo not shown) | -13.95 and -4.901 |
| `CCC(C)NC(=O)c1ccc(NC(=O)CCCn2cncn2)c(C)c1` (stereo not shown) | 7.727 |
| `CN1CC(=O)N(c2cccc(F)c2)CC12CCN(Cc1cncn1C)C2.O=C(O)C(F)(F)F.O=C(O)C(F)(F)F` (stereo not shown) | -4.112 and -20.1 |
| `O=C(O)C(F)(F)F.[H][C@@]12CCCO[C@]1([H])[C@H](OCc1cccnc1)CN2S(=O)(=O)CC` | -4.297 |
| `COCCN1CC(C(=O)NCc2ccnc(-n3cccn3)c2)CC1=O` (stereo not shown) | 4.928 |
| `Cc1nc(C)n(CC2CN(Cc3nccs3)Cc3nccn3C2)n1.O=C(O)C(F)(F)F` (stereo not shown) | -6.818 and -2.679 |
| `O=S(=O)(Cc1ccccc1)NCc1nnc2n1CCC2` | -11.09 |
| `O=C(Cn1cc(C(=O)O)ccc1=O)Nc1ccc(Cl)cc1F` | 0.3665 |
| `Cc1nc(CN2CCN(c3cncc(Cl)n3)CC2)no1` | -16.3 |
| `COc1coc(CN2CCCC(CCc3ccc(F)c(F)c3)C2)cc1=O` (stereo not shown) | 48.41 and 49.48 |
| `O=C(O)C(F)(F)F.[H][C@@]12CCN(Cc3ccsc3)C[C@]1([H])[C@H](C(=O)Nc1cnccn1)CCO2` | -41.79 |
| `Cc1nccn1CCCN1CCC2(CCC(=O)N(CC3CC3)C2)CC1` | 0.8507 |
| `Cc1cc(CC(=O)N2CCCC2c2nc(C(C)C)no2)on1` (stereo not shown) | -20.78 and -3.325 |
| `[H][C@]12CCN(C(=O)c3cnccn3)[C@@]1([H])CC[C@@H](COCC)O2` | -5.706 |
| `COc1ccc(C(O)CNC(=O)NCc2c(C)cc(C)[nH]c2=O)cc1` (stereo not shown) | 4.774 |
| `COCc1cncc2c1CCN(C(=O)c1ccoc1C)C2` | 27.56 |
| `CC(=O)c1cc(CN2CCCCC2c2nc3cc(F)ccc3[nH]2)cs1` (stereo not shown) | 23.26 |
| `Cc1ccc(Oc2ncccc2C(=O)N(C)CCCN(C)C)cc1` | -22.23 |
| `CN(C)C(=O)NC1COC2(CCN(Cc3ccc(N(C)C)cc3)CC2)C1` (stereo not shown) | 14.59 |
| `COCCN1CC(C(=O)NCc2ccc(C)s2)CC1=O` (stereo not shown) | 10.44 |
| `CCc1noc(CS(=O)(=O)Cc2nc(Cc3ccccc3)no2)n1` | -12.13 |
| `CCCOc1ccc2c(c1)OCC(CNC1CCc3ncnn3C1)=C2` (stereo not shown) | 12.87 |
| `CC(NC(=O)NCCCN(C)C)c1ccc2c(c1)CCC(=O)N2` (stereo not shown) | 15.11 |
| `O=C(C1CCC1)N1CCC2(CCN(Cc3cccc(F)c3)CC2)CC1.O=C(O)C(F)(F)F` | -5.331 and -40.93 |

Some entries from above, unchanged:

* COCCN1CC(C(=O)NCc2ccnc(-n3cccn3)c2)CC1=O (stereo not shown) : 4.928%
* CN1CC(=O)N(c2cccc(F)c2)CC12CCN(Cc1cncn1C)C2.O=C(O)C(F)(F)F.O=C(O)C(F)(F)F (stereo not shown) : -4.112% and -20.1%
* Cc1cccc(OCCC(=O)N2CCCN(CC(N)=O)CC2)c1C : 4.574%
* CC(C)Oc1ccc(CNC(=O)NCc2ccncc2)cc1F : 13.33%
* CN1C(=O)C2(CC(=O)Nc3[nH]ncc32)c2ccc(F)cc21 (stereo not shown) : -5.14%
* COCCN1C(=O)CC[C@]12CC[C@@H](NCc1cccc(C)n1)CC2.O=C(O)C(F)(F)F : -6.299% and -36.65%
* COc1ccc(C(O)CNC(=O)NCc2c(C)cc(C)[nH]c2=O)cc1 (stereo not shown) : 4.774%
* CCNC(=O)NCc1ccc(-n2ccc(C(F)(F)F)n2)cc1 : 21.26%
* O=C(C1CCC1)N1CCC2(CCN(Cc3cccc(F)c3)CC2)CC1.O=C(O)C(F)(F)F : -5.331% and -40.93%